From patent publication US20100209426A1, “INHIBITORS OF PROGASTRIN-INDUCED REPRESSION OF ICAT FOR TREATING AND/OR PREVENTING COLORECTAL CANCER, ADENOMATOUS POLYPOSIS OR METASTASIS DISPLAYING PROGASTRIN-SECRETING CELLS AND CELLS IN WHICH THE BETA-CATENIN/TCF-MEDIATED TRANSCRIPTIONAL PATHWAY IS CONSTITUTIVELY ACTIVE” (INSERM (INSTITUT NATIONAL DE LA SANTE ET DE LA REC HERCHE …, priority 2006, published 2010)

Key:
[1] = system: SW480 cells; assay: Radioimmunoassay of GAS gene products in SW480 cell supernatants; type: cell-based, human
[2] = system: DLD-1 cells; assay: Radioimmunoassay of GAS gene products in DLD-1 cell supernatants; type: cell-based, human
[3] = SW480/GAS(−)[1] cells (GAST shRNA)
[4] = SW480/GAS(−)[2] cells (GAST shRNA)
[5] = SW480/βgal(−) cells (control shRNA)
[6] = DLD-1/ASG[1] cells (antisense GAST cDNA)
[7] = DLD-1/ASG[2] cells (antisense GAST cDNA)

Molecule | RIA quantification of secreted peptide [1, 3] | RIA quantification of secreted peptide [1, 4] | RIA quantification of secreted peptide [1, 5] | RIA quantification of secreted peptide [2, 6] | RIA quantification of secreted peptide [2, 7] | RIA quantification of secreted peptide ([2]; DLD-1/VO cells (control))
amidated gastrin17: COOH terminally amidated gastrin, maturation product of progastrin [reference compound] | 7 pmol/l/24 h | <7 pmol/l/24 h | <7 pmol/l/24 h | (<7) | (<7) | (<7)
recombinant progastrin: full-length progastrin (1-80) prohormone encoded by the GAST gene; recombinant peptide or secreted by CRC cells (protein) SWKPRSQQPDAPLGTGANRDLELPWLEQQGPASHHRRQLGPQGPPHLVADPSKKQGPWLEEEEEAYGWMDFGRRSAEDEN | 9 ± 1.5 pmol/l/24 h | 6 ± 1 pmol/l/24 h | 45.3 ± 3 pmol/l/24 h | (19 ± 3) | (23 ± 1.5) | (396 ± 11)
glycine-extended gastrin17: glycine-extended gastrin, one of the products of progastrin maturation (peptide) peptide: SWKPRSQQPDAPLGTGANRDLELPWLEQQGPASHHRRQLGPQGPPHLVADPSKKQGPWLEEEEEAYGWMDFGRRSAEDEN | 3 ± 1.5 pmol/l/24 h | 2.1 ± 1 pmol/l/24 h | 2.7 ± 1 pmol/l/24 h | (18.6 ± 2) | (17 ± 2) | (310 ± 7)
